Experimental data: PubChem BioAssay AID1259254 (NCATS, 2017)
The deposit covers about 59,000 reagents; shown is a random part of them. In the full data, about 1,550 (2.6%) got an active call. 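G2 share is only a proxy for re-replication; each gene was hit by three separate siRNAs, and active genes were retested.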 Entries without a mark were called inactive. The numbers tell different reagents against one gene apart. Not all columns of the deposit are shown. Not given: the amount of reagent.

Purpose: 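Finding genes that stop cells copying their DNA twice in one cycle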 (primary screen)
Cells: human HCT116 colorectal cancer cells
Knock-down reagent: single siRNA against human genes
Duration: 3 days
Read-out: 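Imaged Hoechst DNA stain sorts each cell into a cycle phase by DNA amount; per plate, G2 fraction set to 0% for non-targeting and 100% for GMNN siRNA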
Reading the numbers: G2 robust z-score: higher = more G2 cells, more excess DNA replication
Rule for the call: 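Active siRNAs have a G2 robust z of 5 or more median absolute deviations over the median, which in these data means about 38% or higher of GMNN control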

GOLT1A #1 — G2 robust z-score: 0.15
GOLT1A #2 — G2 robust z-score: -0.0951
GOLT1A #3 — G2 robust z-score: 0.551
TRIM10 #1 — G2 robust z-score: -0.748
TRIM10 #2 — G2 robust z-score: 3.38
TRIM10 #3 — G2 robust z-score: -0.489
OPRM1 #1 — G2 robust z-score: -1.44
OPRM1 #2 — G2 robust z-score: -0.719
OPRM1 #3 — G2 robust z-score: -0.339
EMD #1 — G2 robust z-score: 1.58
EMD #2 — G2 robust z-score: -0.879
EMD #3 — G2 robust z-score: -0.912

Continued; the last 3 above are carried over.
EMD #1 — G2 robust z-score: 1.58
EMD #2 — G2 robust z-score: -0.879
EMD #3 — G2 robust z-score: -0.912
RMP64 #1 — G2 robust z-score: 1.92
RMP64 #2 — G2 robust z-score: 0.346
RMP64 #3 — G2 robust z-score: -0.168
CCDC34 #1 — G2 robust z-score: 0.0221
CCDC34 #2 — G2 robust z-score: -0.122
CCDC34 #3 — G2 robust z-score: 0.952
GANAB #1 — G2 robust z-score: 1.49
GANAB #2 — G2 robust z-score: 5.71 (active)
GANAB #3 — G2 robust z-score: 0.624
UBE3D #1 — G2 robust z-score: 0.459
UBE3D #2 — G2 robust z-score: 5.21 (active)
UBE3D #3 — G2 robust z-score: -0.106
NGB #1 — G2 robust z-score: 0.506
NGB #2 — G2 robust z-score: -0.194
NGB #3 — G2 robust z-score: 0.131
NGB #4 — G2 robust z-score: 2.73
NGB #5 — G2 robust z-score: -0.612
NGB #6 — G2 robust z-score: 3.81
